Data as given in US11969464B2, “Amidated peptides and their deamidated counterparts displayed by HLA-A*02 for use in immunotherapy against different types of cancers” (Immatics Biotechnologies GmbH, priority 2020, dated 2024).

Assay: Absolute quantitation of tumor associated peptides presented on the cell surface (nano LC-MS/MS)
Set-up: species or system human
Conditions: tumor samples
Description: The generation of binders, such as antibodies and/or TCRs, is a laborious process, which may be conducted only for a number of selected targets. In the case of tumor associated and specific peptides, selection criteria include, but are not restricted to, exclusiveness of presentation and the density of peptide presented on the cell surface. In addition to the isolation and relative quantitation of peptides as described in EXAMPLE 1, the inventors did analyze absolute peptide copies per cell as described in WO 2016/107740. The quantitation of TUMAP copies per cell in solid tumor samples requires the absolute quantitation of the isolated TUMAP, the efficiency of the TUMAP isolation process, and the cell count of the tissue sample analyzed.
For an accurate quantitation of peptides by mass spectrometry, a calibration curve was generated for each individual peptide using two different isotope labeled peptide variants (one or two isotope-labeled amino acids are included during TUMAP synthesis). […]
The calibration curves were prepared in at least three different matrices, i.e. HLA peptide eluates from natural samples similar to the routine MS samples, and each preparation was measured in duplicate MS runs. For evaluation, MS signals were normalized to the signal of the internal standard and a calibration curve was calculated by logistic regression. […]

**Q.** Which “COPIES PER CELL (MEDIAN)” value does the source give for “2 (RLLEGDFSL; peptide displayed by HLA-A*02) [compound 2]” here?
**A.** + (≥25 = +)

**Q.** With “61 (FISDFTMTI; peptide displayed by HLA-A*02) [compound 61]” as the substance, how does the “COPIES PER CELL (MEDIAN)” value read?
**A.** ++++ (≥100 = ++++)
